Measured values published in patent publication US20140057807A1.
Results are given in words; binding and its absence hold for the method and conditions named. Binding calls can cover weak binding; strength is not graded here.

biological target: lysozyme; assay: cradle library selection hit

Row | binding | Binder
1 | binds | SEQ ID NO 109 (designed binder) VSDVPRDLEVVAATPTSLLISWDAPAVTVRNYLIDYGYKNYSIAGQEFTVPGSKSIATISGLKPGVFYAILVAAVRYFWYFPISINYRT
2 | binds | SEQ ID NO 125 (designed binder) VSDVPRDLEVVAATPTSLLISWDAPAVTVREYDIYYVDSYYYFEGQYPHQEFTVPGSKSTATISDLKPGVTYDIGVKAVYNGSRIVEPISINYRT
3 | binds | SEQ ID NO 116 (designed binder) VSDVPRDLGVVAATPTSLLISWDAPAVTVRKYMISYTLMGHLHYGASQEFTVPGSKSTATISGLKPGVVYYGIYVLAVSEYQVASPISINYRT
4 | binds | SEQ ID NO 102 (designed binder) VSDVPRDLEVVAATPTSLLISWDAPAVTVRSYYIKYSTCSHYVRSGVGQEFTVPGSKSTATISGLKPGVDYMIDVNAVLSEGRGDPISINYRT
5 | binds | SEQ ID NO 115 (designed binder) VSDVPRDLEVVAATPTSLLISWDAPAVTVRTYSISYFDYLHLYSQEFTVQGSKSTATISGLKPGVYYAIYVWAVGWWLADPISINYRT
6 | binds | SEQ ID NO 107 (designed binder) VSDVPRDLEVVAATPTSLLISWDAPAVTVRGYGIDYGQRDYQQGSQQEFTVPGSKSTATISGLKPGVQYDIYVGAVETYVYARPISINYRT
7 | binds | SEQ ID NO 128 (designed binder) VSDVPRDLEVVAATPTSLPISWDAPAVTVRYYSIWYYHYYPYAQEFTVPGSKSTATISSLKQGVRYFIDVLAVAWVRWAYPISINYRT
8 | binds | SEQ ID NO 126 (designed binder) VSDVPRDLEVVAATPTSLLISWDAPAVTVRVYEISYYSSESYLPGQEFTVPGSKSTATISGLKPGVTYDIHVSAVAYRGASPISINYRT
9 | binds | SEQ ID NO 127 (designed binder) VSDVPRDLEVVAATPTSLLISWDAPAVTVREYLIGYAVTEYGDRQEFTVPGSKSTATISGLKPGVLYDIRVLAVYARWPKPISINYRT
10 | binds | SEQ ID NO 98 (designed binder) PLSPPTNLHLEANPDTGVLTVSWERSTTPDITAYYIYTYKSDKTRYLEEVVHADQSSCTFDNLSPGLYYGVGAVATVRPHPTAGPISDTIIP
11 | binds | SEQ ID NO 99 (designed binder) PLSPPTNLHLEANPDTGVLTVSWERSTTPDITHYLIYTYGHHSAGLEEVVHADQSSCTFDNLSPGLGYSVYVNTVAYKTMGPISDTIIP
12 | binds | SEQ ID NO 120 (designed binder) VSDVPRDLEVVAATPTSLLISWDAPAVTVRTYSISYRYGKWSGQEFTVPGSKSTATISGLKPGVYYDIGVTAVTSVVSGPISINYRT
13 | binds | SEQ ID NO 101 (designed binder) VSDVPRDLEVVAATPTSLLISWDAPAVTVRTYYIMYSLWQHYVTNALQEFTVPGSKSTATISGLKPGVFYGILVYAVSWWSRWPISINYRT
14 | binds | SEQ ID NO 123 (designed binder) VSDVPRDLEVVAATPTSLLISWDAPAVTVRNYAISYQDDSPYVQEFTVPGSKSTATISGLKPGVNYDISVTAVGWWRSGMPISINYRT
15 | binds | SEQ ID NO 121 (designed binder) VSDVPRDLEVVAATPTSLLISWDAPAVTVRQVYVIAYRYYVRSWGQEFTVPGSKSTATISGLKPGVYYSINVLAVYYRTWRPISINYRT
16 | binds | SEQ ID NO 105 (designed binder) VSDVPRDLEVVAATPTSLLISWDAPAVTVRLYAIMYTAYEYRVMDAKLYQEFTVPGSKSTATISGLKPGVSYYINVAAVYLHRYFYPISINYRT
17 | binds | SEQ ID NO 112 (designed binder) VSDVPRDLEVVAATPTSLLISWDAPAVTVRIYSIGSQEFTVPGSKSTATISGLKPGVWYWIYVAAVRAWSYWHPISINYRT
18 | binds | SEQ ID NO 114 (designed binder) VSDVPRDLEVVAATPTSLLISWDAPAVTVRSYEIGYEYIYLQYSQEFTVPGSKSTATISGLKPGVMYSIVVYAVNKVYSYFPISINYRT
19 | binds | SEQ ID NO 111 (designed binder) VSDVPRDLEVVAATPTSLLISWDAPAVTVRGYDIAYGVNYYYYSYQEFTVPGSKSTATISGLKPGVVYGIYVAAVRYWHYLFPISINYRT
20 | binds | SEQ ID NO 108 (designed binder) VSDVPRDLEVVAATPTSLLISDAPAVTVRSYYIYYYDYDGGSVQEFTVPGSKSTATISGLKPGVSYVISVAAVWYAAYRYPISINYRT
21 | binds | SEQ ID NO 122 (designed binder) VSDVPRDLEVVAATPTSLLISWDAPAVTVRSYDISYNGMAYTKTLVQEFTVPGSKSTATISGLKPGVNYLIDVIAVSFRRWWSPISINYRT
22 | binds | SEQ ID NO 124 (designed binder) VSDVPRDLEVVAATPTSLLISWDAPAVTVRTYDIGYSSFNSSTLYVQEFTVPGSKSTATISGLKPGVNYDISVTAVRLQESQRPISINYRT
23 | binds | SEQ ID NO 117 (designed binder) VSDVPRDLEVVAATPTSLLISWDAPAVTVRSYNISYSKYHYSPAYQEFTVPGSKSTATISGLKPGVQYYISVSAVHAHNVAGPISINYRT
24 | binds | SEQ ID NO 106 (designed binder) VSDVPRDLEVVAATPTSLLIPWDAPAVTVRGYKIDYVVQTWAYYQEFTVPGSKSTATISGLKPGVSYAITVLAVYRWYYSPISINYRT
25 | binds | SEQ ID NO 110 (designed binder) ISDVPRDLEVVAATPTSLLISWDAPAVTVRGYSIHYYYYSFTGQEFTVPGSKSTATISGLKPGVSYWIRVWAVRFWEYLPPISINYRT
26 | binds | SEQ ID NO 104 (designed binder) VSDVPRDLEVVAATPTSLLISWDAPAVTVRYYEIWYESYFYVLWQEFTVPGSKSTATISGLKPGVSYEITVSAVYWHYAYPISINYRT
27 | binds | SEQ ID NO 113 (designed binder) VSDVPRDLEVVAATPTSLLISWDAPAVTVREYYIYYGSSQETEGQEFTVPGSKSTATISGLKPGVNYSIGVAAVQNIYTYYPISINYRT
28 | binds | SEQ ID NO 119 (designed binder) VSDVPRDLEVVAATPTSLLISWDAPAVTVRKYQISYGYYSNTDQEFTVPGSKSTATISGLKPGVDYWIYVSAVAWQADQGPISINYRT
29 | binds | SEQ ID NO 103 (designed binder) VSDVPRDLEVVAATPTSLLISWDAPAVTVRGYTTYSYRDSQEFTVPGSKSTATISGLKPGVIYNILVSAVSEWWKYPISINYRT
